Measured values reported in the M2OR odorant receptor database.
Only a part is listed here, and it is no random draw. Calls are pooled over several reports, among them a noisy single-well screen.

Legend:
Settings in all cases: stereoisomer not certain
UniProt Q8VGJ3 = target: T1, UniProt Q8VGJ3
T1 sequence (whole entry): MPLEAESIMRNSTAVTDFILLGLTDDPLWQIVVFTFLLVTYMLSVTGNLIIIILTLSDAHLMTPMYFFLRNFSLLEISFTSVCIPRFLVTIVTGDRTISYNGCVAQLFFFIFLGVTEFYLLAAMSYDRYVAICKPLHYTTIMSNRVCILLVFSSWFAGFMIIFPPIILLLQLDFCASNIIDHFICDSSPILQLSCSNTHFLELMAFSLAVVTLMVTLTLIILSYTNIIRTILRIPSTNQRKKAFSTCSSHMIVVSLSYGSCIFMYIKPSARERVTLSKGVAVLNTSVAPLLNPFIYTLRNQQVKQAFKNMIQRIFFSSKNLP
In short: (§1)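 Whether a receptor–molecule pair is responsive (active) rests on the original authors' judgment that its measured signal was statistically different from baseline. Pairs without that judgment are non-responsive (inactive). Sources used varied assay methods, commonly transient luciferase assays in mammalian cell lines.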

UniProt Q8VGL0 = target: T2, UniProt Q8VGL0
T2 sequence (whole entry): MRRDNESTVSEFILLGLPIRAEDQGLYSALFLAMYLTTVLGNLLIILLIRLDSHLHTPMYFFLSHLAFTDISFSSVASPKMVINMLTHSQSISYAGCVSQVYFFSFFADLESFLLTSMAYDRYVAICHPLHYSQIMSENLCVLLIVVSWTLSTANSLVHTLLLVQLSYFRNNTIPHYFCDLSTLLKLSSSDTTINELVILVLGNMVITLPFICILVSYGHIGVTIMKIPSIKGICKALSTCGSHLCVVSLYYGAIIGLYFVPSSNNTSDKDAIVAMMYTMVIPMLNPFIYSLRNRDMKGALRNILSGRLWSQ
In short: as §1

UniProt Q8VGU3 = target: T3, UniProt Q8VGU3
T3 sequence (whole entry): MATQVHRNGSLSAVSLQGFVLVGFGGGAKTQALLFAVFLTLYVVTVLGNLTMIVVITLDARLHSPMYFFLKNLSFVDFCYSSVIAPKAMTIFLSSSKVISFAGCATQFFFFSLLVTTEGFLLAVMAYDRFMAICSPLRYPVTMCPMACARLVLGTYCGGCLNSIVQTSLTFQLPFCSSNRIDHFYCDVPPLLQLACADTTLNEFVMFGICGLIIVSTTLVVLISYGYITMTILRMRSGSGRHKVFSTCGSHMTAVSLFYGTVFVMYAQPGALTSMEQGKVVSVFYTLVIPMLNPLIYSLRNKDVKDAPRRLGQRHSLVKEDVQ
In short: as §1

UniProt Q8VGV7 = target: T4, UniProt Q8VGV7
T4 sequence (whole entry): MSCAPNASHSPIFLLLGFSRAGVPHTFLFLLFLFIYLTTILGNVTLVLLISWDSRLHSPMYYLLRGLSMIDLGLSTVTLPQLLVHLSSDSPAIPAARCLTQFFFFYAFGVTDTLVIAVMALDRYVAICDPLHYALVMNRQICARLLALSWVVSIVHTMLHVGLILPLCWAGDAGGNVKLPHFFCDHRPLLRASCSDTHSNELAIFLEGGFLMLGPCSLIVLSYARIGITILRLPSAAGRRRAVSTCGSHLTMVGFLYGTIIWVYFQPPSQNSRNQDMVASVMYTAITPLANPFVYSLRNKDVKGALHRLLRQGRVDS
In short: as §1

UniProt Q8VGX3 = target: T5, UniProt Q8VGX3
T5 sequence (whole entry): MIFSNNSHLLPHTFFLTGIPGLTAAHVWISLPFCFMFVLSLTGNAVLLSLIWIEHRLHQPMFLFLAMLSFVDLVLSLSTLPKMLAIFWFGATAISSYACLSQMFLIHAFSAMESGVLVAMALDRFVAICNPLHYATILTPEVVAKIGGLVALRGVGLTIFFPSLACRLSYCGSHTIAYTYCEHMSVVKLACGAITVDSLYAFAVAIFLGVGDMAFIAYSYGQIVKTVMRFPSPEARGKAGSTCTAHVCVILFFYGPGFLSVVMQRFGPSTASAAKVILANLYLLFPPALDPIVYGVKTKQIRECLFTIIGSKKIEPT
In short: as §1

UniProt Q8VGX5 = target: T6, UniProt Q8VGX5
T6 sequence (whole entry): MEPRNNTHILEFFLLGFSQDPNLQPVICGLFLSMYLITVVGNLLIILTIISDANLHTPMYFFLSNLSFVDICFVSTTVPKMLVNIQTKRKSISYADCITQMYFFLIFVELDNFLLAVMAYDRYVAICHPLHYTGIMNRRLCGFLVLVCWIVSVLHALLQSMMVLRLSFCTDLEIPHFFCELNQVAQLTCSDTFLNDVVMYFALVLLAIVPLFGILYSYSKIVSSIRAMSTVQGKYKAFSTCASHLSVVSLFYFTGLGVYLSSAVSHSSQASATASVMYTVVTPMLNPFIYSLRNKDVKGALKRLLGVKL
In short: as §1

UniProt Q8VGZ2 = target: T7, UniProt Q8VGZ2
T7 sequence (whole entry): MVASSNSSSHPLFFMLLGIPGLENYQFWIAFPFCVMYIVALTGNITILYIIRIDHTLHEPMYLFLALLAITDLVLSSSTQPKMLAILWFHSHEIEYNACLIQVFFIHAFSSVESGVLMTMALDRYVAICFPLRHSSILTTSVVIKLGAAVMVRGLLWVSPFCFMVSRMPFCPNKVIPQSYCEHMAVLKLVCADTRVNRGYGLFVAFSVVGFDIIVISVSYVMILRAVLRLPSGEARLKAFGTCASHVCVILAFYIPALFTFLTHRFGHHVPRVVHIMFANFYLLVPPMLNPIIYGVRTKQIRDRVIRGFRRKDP
In short: as §1

Measured: odorant receptor agonist call;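 note: active if original authors judged signal statistically different from baseline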

COc1cc(C=O)ccc1O
inactive: UniProt Q8VGJ3 | UniProt Q8VGL0 | UniProt Q8VGU3 | UniProt Q8VGV7 | UniProt Q8VGX3 | UniProt Q8VGX5 | UniProt Q8VGZ2

c1cnccn1
inactive: UniProt Q8VGJ3 | UniProt Q8VGL0 | UniProt Q8VGU3 | UniProt Q8VGV7 | UniProt Q8VGX3 | UniProt Q8VGX5 | UniProt Q8VGZ2
